Results are given in words; binding and its absence hold for the method and conditions named. Binding seen in cells or lysates may run through a third protein. Some entries that bind do so weakly or less than the wild type. For part of these data: Sequences can lack the tags named with a protein.
Legend:
Test in all cases: anti-FLAG co-IP, LC-MS/MS
[1] = target: T1, Rck2 (Saccharomyces cerevisiae) (UniProt P38623)
T1 sequence (looked up): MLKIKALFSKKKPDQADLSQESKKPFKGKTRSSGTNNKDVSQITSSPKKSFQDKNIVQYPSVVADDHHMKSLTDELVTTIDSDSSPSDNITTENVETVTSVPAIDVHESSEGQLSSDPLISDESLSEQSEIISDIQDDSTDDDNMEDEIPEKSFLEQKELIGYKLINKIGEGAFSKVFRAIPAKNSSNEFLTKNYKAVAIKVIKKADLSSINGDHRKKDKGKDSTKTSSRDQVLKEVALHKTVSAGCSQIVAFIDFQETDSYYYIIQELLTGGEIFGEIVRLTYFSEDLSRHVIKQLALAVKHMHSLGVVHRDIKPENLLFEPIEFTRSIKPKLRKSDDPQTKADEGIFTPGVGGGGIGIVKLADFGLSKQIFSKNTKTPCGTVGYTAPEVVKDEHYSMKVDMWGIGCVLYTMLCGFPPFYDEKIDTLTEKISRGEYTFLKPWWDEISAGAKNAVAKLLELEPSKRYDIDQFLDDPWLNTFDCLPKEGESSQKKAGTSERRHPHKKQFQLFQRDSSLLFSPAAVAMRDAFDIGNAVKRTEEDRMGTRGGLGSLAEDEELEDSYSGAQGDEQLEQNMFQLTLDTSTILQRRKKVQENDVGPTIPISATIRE

Amino acid sequences for entries named in this document (tags omitted). Residues count along the entry.
UniProt P00546, residues 2-298: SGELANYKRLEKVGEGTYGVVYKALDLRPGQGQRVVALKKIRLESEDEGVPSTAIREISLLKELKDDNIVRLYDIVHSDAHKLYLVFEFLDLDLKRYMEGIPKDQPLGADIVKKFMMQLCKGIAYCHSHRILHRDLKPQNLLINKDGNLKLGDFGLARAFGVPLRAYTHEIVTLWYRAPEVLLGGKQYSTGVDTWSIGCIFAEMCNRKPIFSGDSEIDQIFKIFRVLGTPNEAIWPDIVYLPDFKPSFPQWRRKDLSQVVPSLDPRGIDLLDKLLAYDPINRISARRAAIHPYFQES
UniProt P47035: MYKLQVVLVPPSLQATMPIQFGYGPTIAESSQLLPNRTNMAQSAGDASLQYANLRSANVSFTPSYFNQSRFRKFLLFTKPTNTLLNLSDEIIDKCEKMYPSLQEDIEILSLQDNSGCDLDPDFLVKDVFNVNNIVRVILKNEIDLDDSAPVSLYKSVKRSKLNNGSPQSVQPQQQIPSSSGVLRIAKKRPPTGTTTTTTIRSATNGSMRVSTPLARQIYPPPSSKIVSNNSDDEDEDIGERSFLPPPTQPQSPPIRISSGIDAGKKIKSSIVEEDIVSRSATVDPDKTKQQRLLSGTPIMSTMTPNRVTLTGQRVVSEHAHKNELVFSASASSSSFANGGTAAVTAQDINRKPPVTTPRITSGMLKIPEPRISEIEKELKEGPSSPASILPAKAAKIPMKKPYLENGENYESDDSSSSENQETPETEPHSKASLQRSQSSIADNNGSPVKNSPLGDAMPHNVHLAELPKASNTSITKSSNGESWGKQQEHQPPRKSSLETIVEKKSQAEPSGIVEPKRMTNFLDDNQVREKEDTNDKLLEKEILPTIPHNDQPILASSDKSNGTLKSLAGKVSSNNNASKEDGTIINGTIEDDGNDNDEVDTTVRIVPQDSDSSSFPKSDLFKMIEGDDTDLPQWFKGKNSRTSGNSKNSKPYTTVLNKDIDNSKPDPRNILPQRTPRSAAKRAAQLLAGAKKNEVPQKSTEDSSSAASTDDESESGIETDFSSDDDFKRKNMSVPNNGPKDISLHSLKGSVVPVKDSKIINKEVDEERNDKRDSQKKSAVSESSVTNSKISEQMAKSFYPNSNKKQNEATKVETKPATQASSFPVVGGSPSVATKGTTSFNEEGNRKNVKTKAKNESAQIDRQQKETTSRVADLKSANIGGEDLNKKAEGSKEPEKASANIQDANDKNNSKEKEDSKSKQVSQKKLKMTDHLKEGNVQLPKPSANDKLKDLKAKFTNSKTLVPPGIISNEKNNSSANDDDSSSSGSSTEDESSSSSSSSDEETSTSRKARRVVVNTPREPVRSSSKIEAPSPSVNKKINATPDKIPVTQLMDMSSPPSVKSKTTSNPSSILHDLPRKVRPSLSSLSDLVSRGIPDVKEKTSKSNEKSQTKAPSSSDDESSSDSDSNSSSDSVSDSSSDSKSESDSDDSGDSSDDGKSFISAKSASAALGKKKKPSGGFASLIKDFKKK
UniProt P22579: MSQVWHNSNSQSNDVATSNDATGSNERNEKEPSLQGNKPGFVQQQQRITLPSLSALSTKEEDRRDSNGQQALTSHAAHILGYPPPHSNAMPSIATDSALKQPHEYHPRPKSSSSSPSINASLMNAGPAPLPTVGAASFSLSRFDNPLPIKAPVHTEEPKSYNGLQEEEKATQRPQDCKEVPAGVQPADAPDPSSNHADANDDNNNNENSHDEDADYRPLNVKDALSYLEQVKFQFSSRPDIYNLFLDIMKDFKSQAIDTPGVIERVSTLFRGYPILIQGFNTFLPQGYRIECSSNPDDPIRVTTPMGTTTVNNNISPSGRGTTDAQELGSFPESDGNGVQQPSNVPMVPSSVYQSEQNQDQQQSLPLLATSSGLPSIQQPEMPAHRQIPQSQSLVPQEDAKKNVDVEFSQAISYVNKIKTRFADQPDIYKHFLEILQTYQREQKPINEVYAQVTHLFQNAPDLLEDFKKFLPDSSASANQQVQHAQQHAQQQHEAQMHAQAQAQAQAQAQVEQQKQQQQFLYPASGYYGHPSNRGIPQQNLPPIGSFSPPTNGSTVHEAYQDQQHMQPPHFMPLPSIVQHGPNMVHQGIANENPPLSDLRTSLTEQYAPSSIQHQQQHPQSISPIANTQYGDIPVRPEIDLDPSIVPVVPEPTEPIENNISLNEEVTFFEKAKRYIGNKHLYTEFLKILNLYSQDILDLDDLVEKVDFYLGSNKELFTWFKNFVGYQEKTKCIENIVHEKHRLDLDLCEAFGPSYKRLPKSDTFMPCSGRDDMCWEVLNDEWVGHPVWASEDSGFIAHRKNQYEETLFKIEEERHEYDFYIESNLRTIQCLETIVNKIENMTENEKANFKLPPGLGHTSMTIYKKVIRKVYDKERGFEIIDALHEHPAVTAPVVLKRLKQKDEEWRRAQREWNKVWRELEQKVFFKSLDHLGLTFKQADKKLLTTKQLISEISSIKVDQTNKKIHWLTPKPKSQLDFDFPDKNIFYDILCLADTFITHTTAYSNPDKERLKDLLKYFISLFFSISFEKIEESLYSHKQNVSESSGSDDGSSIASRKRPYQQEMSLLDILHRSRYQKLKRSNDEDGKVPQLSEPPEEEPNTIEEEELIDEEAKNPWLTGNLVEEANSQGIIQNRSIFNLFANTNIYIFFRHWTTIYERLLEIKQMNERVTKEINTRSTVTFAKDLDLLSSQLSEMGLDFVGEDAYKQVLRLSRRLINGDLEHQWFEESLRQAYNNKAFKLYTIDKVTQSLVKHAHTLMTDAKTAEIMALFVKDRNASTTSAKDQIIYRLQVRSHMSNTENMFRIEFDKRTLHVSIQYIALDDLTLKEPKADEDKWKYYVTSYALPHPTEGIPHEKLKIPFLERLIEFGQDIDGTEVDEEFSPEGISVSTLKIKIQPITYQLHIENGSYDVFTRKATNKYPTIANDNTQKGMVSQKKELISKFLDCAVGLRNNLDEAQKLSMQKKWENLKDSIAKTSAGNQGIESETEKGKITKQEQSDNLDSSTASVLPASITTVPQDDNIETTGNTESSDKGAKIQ

[2] = target: Cdc28 (Saccharomyces cerevisiae) (UniProt P00546)
[3] = target: T2, Fhl1 (Saccharomyces cerevisiae) (UniProt P39521)
T2 sequence (looked up): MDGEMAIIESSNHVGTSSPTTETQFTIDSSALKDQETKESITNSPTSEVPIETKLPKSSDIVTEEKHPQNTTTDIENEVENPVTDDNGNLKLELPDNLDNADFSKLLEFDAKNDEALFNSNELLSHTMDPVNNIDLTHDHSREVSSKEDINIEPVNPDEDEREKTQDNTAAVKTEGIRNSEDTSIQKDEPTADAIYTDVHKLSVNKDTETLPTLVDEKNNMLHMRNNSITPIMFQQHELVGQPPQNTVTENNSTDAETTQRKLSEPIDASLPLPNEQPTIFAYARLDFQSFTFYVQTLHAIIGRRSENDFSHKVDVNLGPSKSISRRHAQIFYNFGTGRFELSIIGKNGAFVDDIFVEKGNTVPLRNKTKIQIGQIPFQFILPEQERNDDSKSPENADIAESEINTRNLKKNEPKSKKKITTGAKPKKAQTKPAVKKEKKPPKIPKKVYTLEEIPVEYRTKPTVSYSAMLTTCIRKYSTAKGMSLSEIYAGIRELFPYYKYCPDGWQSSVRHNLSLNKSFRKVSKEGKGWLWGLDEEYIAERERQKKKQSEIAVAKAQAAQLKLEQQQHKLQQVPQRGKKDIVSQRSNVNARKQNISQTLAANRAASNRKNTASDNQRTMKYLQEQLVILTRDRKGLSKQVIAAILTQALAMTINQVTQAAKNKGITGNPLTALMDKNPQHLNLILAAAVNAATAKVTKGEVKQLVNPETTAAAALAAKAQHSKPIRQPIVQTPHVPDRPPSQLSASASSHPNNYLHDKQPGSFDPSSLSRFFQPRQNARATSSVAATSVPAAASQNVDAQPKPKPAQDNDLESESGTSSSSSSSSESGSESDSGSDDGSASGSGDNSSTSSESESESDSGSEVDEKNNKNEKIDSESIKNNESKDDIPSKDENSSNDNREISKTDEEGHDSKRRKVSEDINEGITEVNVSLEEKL

[4] = target: T3, Fkh2 (Saccharomyces cerevisiae) (UniProt P41813)
T3 sequence (looked up): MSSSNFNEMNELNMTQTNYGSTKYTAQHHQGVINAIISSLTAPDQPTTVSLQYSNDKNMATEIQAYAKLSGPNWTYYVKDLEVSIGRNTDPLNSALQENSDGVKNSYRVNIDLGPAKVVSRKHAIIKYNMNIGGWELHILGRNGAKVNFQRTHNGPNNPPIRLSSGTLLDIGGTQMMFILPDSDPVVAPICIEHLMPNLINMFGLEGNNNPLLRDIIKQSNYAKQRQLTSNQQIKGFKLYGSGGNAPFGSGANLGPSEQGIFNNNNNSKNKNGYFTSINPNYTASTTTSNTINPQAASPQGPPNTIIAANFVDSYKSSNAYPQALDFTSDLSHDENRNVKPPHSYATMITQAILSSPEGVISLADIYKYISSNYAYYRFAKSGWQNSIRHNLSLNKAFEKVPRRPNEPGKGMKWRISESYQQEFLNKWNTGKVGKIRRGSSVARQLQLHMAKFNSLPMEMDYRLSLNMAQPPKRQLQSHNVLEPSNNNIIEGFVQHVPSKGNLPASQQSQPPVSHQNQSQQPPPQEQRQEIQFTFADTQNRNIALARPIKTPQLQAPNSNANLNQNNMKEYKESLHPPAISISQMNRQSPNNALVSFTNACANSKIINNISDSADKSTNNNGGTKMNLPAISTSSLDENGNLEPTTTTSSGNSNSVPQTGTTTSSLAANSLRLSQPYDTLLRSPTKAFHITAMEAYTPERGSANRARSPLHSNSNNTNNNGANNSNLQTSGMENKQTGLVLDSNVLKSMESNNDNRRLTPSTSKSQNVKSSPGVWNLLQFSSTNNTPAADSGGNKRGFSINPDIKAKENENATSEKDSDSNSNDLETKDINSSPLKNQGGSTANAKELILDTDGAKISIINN

[5] = target: Net1 (Saccharomyces cerevisiae) (UniProt P47035)
[6] = target: Sin3 (Saccharomyces cerevisiae) (UniProt P22579)

Measured: binding

B1: Hog1 (protein, Saccharomyces cerevisiae, UniProt P32485 1-435, looked up)
chain: MTTNEEFIRTQIFGTVFEITNRYNDLNPVGMGAFGLVCSATDTLTSQPVAIKKIMKPFSTAVLAKRTYRELKLLKHLRHENLICLQDIFLSPLEDIYFVTELQGTDLHRLLQTRPLEKQFVQYFLYQILRGLKYVHSAGVIHRDLKPSNILINENCDLKICDFGLARIQDPQMTGYVSTRYYRAPEIMLTWQKYDVEVDIWSAGCIFAEMIEGKPLFPGKDHVHQFSIITDLLGSPPKDVINTICSENTLKFVTSLPHRDPIPFSERFKTVEPDAVDLLEKMLVFDPKKRITAADALAHPYSAPYHDPTDEPVADAKFDWHFNDADLPVDTWRVMMYSEILDFHKIGGSDGQIDISATFDDQVAAATAAAAQAQAQAQAQVQLNMAAHSHNGAGTTGNDHSDIAGGNKVSDHVAANDTITDYGNQAIQYANEFQQ
binds: [1]

B2: Fkh1 (protein, Saccharomyces cerevisiae, UniProt P40466 1-484, looked up)
chain: MSVTSREQKFSGKYSSYTAQDRQGLVNAVTCVLSSSSDPVAVSSDYSNSLSIAREVNAYAKIAGCDWTYYVQKLEVTIGRNTDSLNLNAVPGTVVKKNIDIDLGPAKIVSRKHAAIRFNLESGSWELQIFGRNGAKVNFRRIPTGPDSPPTVLQSGCIIDIGGVQMIFILPEQETIISDYCLNHLMPKLLSTYGTNGNNNPLLRNIIEGSTYLREQRLQEEARLQQLDHLHTPLSSSSDVNPIGDPHGDTIMMEEDEEDENYTRGGIRPNTYTSSSNNAVTNGNVPHIENPSDLSLDENRYIKPPQSYASMITQAILSTPEGSISLADIYKFISDNYAFYRFSQMAWQNSVRHNLSLNKAFEKVPKRAGQQGKGMNWKISDEVRRDFLNKWNAGKLSKIRRGASVTRQLQLHMSKFGEIPAPESSSIDPRGIKAQKVKKSLQATSSILGESAPQLQRTQLTGQISTTTSMDVTTNANVNNSSLS
not listed: [1]
binds: all other assays above
